# Laboratory results taken from PubChem BioAssay AID624156 (Broad Institute, 2012).
# Out of some 46,000 compounds screened, about 900 (2%) were called active. The inconclusive results got no clear call from the source; some entries with a clear call stand among them for comparison. No stated cut-off is given here; in the data, active means ROS induction above about 79% (passing the limit was not always enough); inconclusive means no clear call, values can overlap the other calls.
# Experiment: ROS inducers in U2OS cancer cells, primary screen, cell-based, H2DCF-DA fluorescence (AID 624156);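 further: 0% = DMSO vehicle median and 100% = reference compound median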
# Details: at 10 µM, stronger effect = higher value
row,Compound,ROS induction (% of piperlongumine)
1,Cc1noc(C)c1NC(=O)Nc1ccc2c(c1)CC(=O)N([C@H](C)CO)C[C@@H](C)[C@@H](CN(C)S(=O)(=O)c1cccs1)O2,active: 106%
2,CCC(C)c1ccc(NC(=O)C2CC(=O)N(c3ccc(C)cc3)C2)cc1 (stereo not drawn),inactive: -11.4%
3,CCC1CCc2nc3sc(C(=O)Nc4cc(Cl)ccc4OC)c(N)c3cc2C1 (stereo not drawn),inactive: 23.5%
4,O=C1NN=C(c2ccccc2)/C1=C1\OC(c2ccccc2)=CS1,active: 138%
5,COc1ccc(NC(=O)Nc2ccc3c(c2)C(=O)N([C@@H](C)CO)C[C@H](C)[C@@H](CN(C)S(=O)(=O)c2ccc(F)cc2)O3)cc1,inactive: -2.71%
6,O=C1O[C@@H](c2ccccc2)[C@@H](c2ccccc2)N2[C@@H](c3ccccc3OCCO)[C@]3(C(=O)Nc4ccccc43)[C@@H](C(=O)N3CCN(c4ncccn4)CC3)[C@H]12,active: 122%
7,C[C@@H]1CN([C@@H](C)CO)C(=O)Cc2cc(NC(=O)Nc3ccccc3)ccc2O[C@@H]1CN(C)Cc1ccc(Cl)c(Cl)c1,inactive: 16.8%
8,C[C@H]1CN([C@@H](C)CO)C(=O)c2cccc(NS(=O)(=O)c3ccccc3)c2O[C@@H]1CN(C)Cc1ccc(-c2ccccc2)cc1,inconclusive: 80.3%
9,C[C@@H]1CN([C@H](C)CO)C(=O)c2cccc(NC(=O)NC3CCCCC3)c2O[C@H]1CN(C)Cc1ccc(Oc2ccccc2)cc1,inconclusive: 93.9%
10,COc1ccc(OC)c(C(O)CNC(=O)CN)c1 (stereo not drawn),active: 122%
11,COc1cc2c(cc1OC)C1(CCCC1)CN(C(=O)c1cc(Br)ccc1OC)C2,inconclusive: 85.5%
12,COC(=O)c1cc(NC(=S)NCc2cccnc2)cc(C(=O)OC)c1,inconclusive: 77.1%
13,O=C1CC(c2ccccc2)N=C(SCC(=O)Nc2ccc3ccccc3c2)N1 (stereo not drawn),inconclusive: 439%
14,O=C(Nc1nc(-c2ccccc2)cs1)C12CC3CC(CC(C3)C1)C2,inconclusive: 83.2%
15,Cc1noc(C)c1NC(=O)N(C)C[C@H]1Oc2ccc(NC(=O)NC3CCCCC3)cc2CC(=O)N([C@@H](C)CO)C[C@@H]1C,active: 104%
16,COC(=O)c1ccc(NC(=O)CSc2nnc(-c3cccc(N)c3)n2C)cc1,inconclusive: 75.9%
17,Cc1ccc(-n2cc(-c3ccccc3)c3c(N4CCCC4)ncnc32)cc1,inconclusive: 94.7%
18,O=C(O)c1ccccc1C(=O)c1ccc(-c2ccccc2)cc1,inconclusive: 80.1%
19,C[C@@H]1CN([C@H](C)CO)C(=O)CCCn2nncc2CO[C@H]1CN(C)C(=O)CCCN(C)C,inconclusive: 84.1%
20,CC(C)NC(=O)Nc1cccc2c1O[C@@H](CN(C)Cc1ccc(Cl)c(Cl)c1)[C@H](C)CN([C@H](C)CO)C2=O,inactive: 28.8%
21,CSc1ccccc1NC(=O)CN(c1cccc2ccccc12)S(C)(=O)=O,inconclusive: 123%

# For reference, 17 of the compounds above.
row,Compound,ROS induction (% of piperlongumine)
4,O=C1NN=C(c2ccccc2)/C1=C1\OC(c2ccccc2)=CS1,active: 138%
5,COc1ccc(NC(=O)Nc2ccc3c(c2)C(=O)N([C@@H](C)CO)C[C@H](C)[C@@H](CN(C)S(=O)(=O)c2ccc(F)cc2)O3)cc1,inactive: -2.71%
6,O=C1O[C@@H](c2ccccc2)[C@@H](c2ccccc2)N2[C@@H](c3ccccc3OCCO)[C@]3(C(=O)Nc4ccccc43)[C@@H](C(=O)N3CCN(c4ncccn4)CC3)[C@H]12,active: 122%
7,C[C@@H]1CN([C@@H](C)CO)C(=O)Cc2cc(NC(=O)Nc3ccccc3)ccc2O[C@@H]1CN(C)Cc1ccc(Cl)c(Cl)c1,inactive: 16.8%
8,C[C@H]1CN([C@@H](C)CO)C(=O)c2cccc(NS(=O)(=O)c3ccccc3)c2O[C@@H]1CN(C)Cc1ccc(-c2ccccc2)cc1,inconclusive: 80.3%
9,C[C@@H]1CN([C@H](C)CO)C(=O)c2cccc(NC(=O)NC3CCCCC3)c2O[C@H]1CN(C)Cc1ccc(Oc2ccccc2)cc1,inconclusive: 93.9%
10,COc1ccc(OC)c(C(O)CNC(=O)CN)c1 (stereo not drawn),active: 122%
11,COc1cc2c(cc1OC)C1(CCCC1)CN(C(=O)c1cc(Br)ccc1OC)C2,inconclusive: 85.5%
12,COC(=O)c1cc(NC(=S)NCc2cccnc2)cc(C(=O)OC)c1,inconclusive: 77.1%
13,O=C1CC(c2ccccc2)N=C(SCC(=O)Nc2ccc3ccccc3c2)N1 (stereo not drawn),inconclusive: 439%
14,O=C(Nc1nc(-c2ccccc2)cs1)C12CC3CC(CC(C3)C1)C2,inconclusive: 83.2%
15,Cc1noc(C)c1NC(=O)N(C)C[C@H]1Oc2ccc(NC(=O)NC3CCCCC3)cc2CC(=O)N([C@@H](C)CO)C[C@@H]1C,active: 104%
16,COC(=O)c1ccc(NC(=O)CSc2nnc(-c3cccc(N)c3)n2C)cc1,inconclusive: 75.9%
17,Cc1ccc(-n2cc(-c3ccccc3)c3c(N4CCCC4)ncnc32)cc1,inconclusive: 94.7%
18,O=C(O)c1ccccc1C(=O)c1ccc(-c2ccccc2)cc1,inconclusive: 80.1%
19,C[C@@H]1CN([C@H](C)CO)C(=O)CCCn2nncc2CO[C@H]1CN(C)C(=O)CCCN(C)C,inconclusive: 84.1%
20,CC(C)NC(=O)Nc1cccc2c1O[C@@H](CN(C)Cc1ccc(Cl)c(Cl)c1)[C@H](C)CN([C@H](C)CO)C2=O,inactive: 28.8%

# The results go on:

row,Compound,ROS induction (% of piperlongumine)
1,O=C(COc1ccc2cc(Br)ccc2c1)Nc1cccc([N+](=O)[O-])c1,inconclusive: 91.6%
2,COCCOC(=O)N1C(=O)[C@@]2(c3cc(C#CCC(C(=O)OC)C(=O)OC)ccc31)[C@H](C(=O)N1CCN(c3ncccn3)CC1)[C@H]1C(=O)O[C@H](c3ccccc3)[C@H](c3ccccc3)N1[C@@H]2c1ccccc1OCCO,active: 79.8%
3,Cc1ccc(S(=O)(=O)N2CCc3ccccc3C2)cc1,inactive: 6.02%
4,COc1ccc(C(=O)Nc2ccccc2C2(C)CC2)cc1,inactive: -17.4%
5,C=C(C(=O)/C=C/C(C)(C)O)C1CC2O[C@]2(C)C(=O)[C@H]1OC(=O)CC(C)C (stereo partly drawn),inconclusive: 82.8%
6,C[C@H](CO)N1C[C@H](C)[C@H](CN(C)S(=O)(=O)c2ccccc2)Oc2ncc(C#Cc3ccc(F)cc3)cc2C1=O,inconclusive: 81.2%
7,COc1ccc(S(=O)(=O)Nc2ccc3c(c2)CC(=O)N([C@H](C)CO)C[C@@H](C)[C@H](CN(C)C(=O)Nc2ccc(C(F)(F)F)cc2)O3)cc1,inconclusive: 99%
8,C[C@@H]1CN([C@H](C)CO)C(=O)Cc2cc(NS(=O)(=O)c3ccccc3)ccc2O[C@@H]1CN(C)C(=O)Nc1cccc2ccccc12,inactive: -3.31%
9,Cc1c(/C=C2\SC(=Nc3ccccc3)N(C3CCCC3)C2=O)c2ccccc2n1CC(N)=O,inconclusive: 150%
10,CCn1c(SCC(=O)Nc2ccccc2)nc2ccc(I)cc2c1=O,active: 109%
11,C[C@H]1CN([C@@H](C)CO)C(=O)c2cccc(NS(=O)(=O)c3ccc(F)cc3)c2O[C@@H]1CN(C)Cc1ccc(-c2ccccc2)cc1,active: 105%
12,CCCCn1c(=O)c(C#N)cc2c(=O)n3ccccc3nc21,inconclusive: 89.9%
13,COc1ccc(Cn2nnc3c(=O)[nH]c(C4CCCN(S(=O)(=O)c5ccccc5)C4)nc32)cc1 (stereo not drawn),active: 139%
14,CCOC(=O)c1cnc2ccc(Cl)cc2c1Nc1ccc(S(=O)(=O)Nc2ncccn2)cc1,inconclusive: 118%
15,C[C@@H]1CN([C@@H](C)CO)C(=O)c2cccc(NC(=O)CCCCCC(=O)Nc3ccccc3N)c2O[C@H]1CN(C)Cc1ccc(Oc2ccccc2)cc1,active: 133%
17,CCCN(C)C[C@@H]1OCCCC[C@@H](C)Oc2ccc(NC(=O)C3CCCCC3)cc2C(=O)N([C@H](C)CO)C[C@@H]1C,inconclusive: 109%
18,O=C(c1ccc(Cl)cc1)N1CCN(C(c2ccccc2)c2ccccc2)CC1,inconclusive: 83%
19,O=C1O[C@@H](c2ccccc2)[C@@H](c2ccccc2)N2[C@@H](c3ccccc3OCCO)[C@]3(C(=O)Nc4ccc(C#CC5(O)CCCCCC5)cc43)[C@@H](C(=O)N3CCN(c4ncccn4)CC3)[C@H]12,inconclusive: 82.3%
20,Cc1ccc(NC(=O)CCn2nc(-c3ccccc3)c3ccccc3c2=O)cc1,inconclusive: 124%
21,C=C[C@@]12COC(=O)C(=C)C1[C@@H](O)[C@H](C(=C)C(=O)OC)[C@@H](OC(=O)C(=C)CO)C2 (stereo partly drawn),inconclusive: 78.4%

row,Compound,ROS induction (% of piperlongumine)
1,Nn1c(SCc2ccc(F)c3ccccc23)nc2ccccc2c1=O,inconclusive: 94.7%
2,COc1ccc(OC)c(NC(=O)CN(c2cccc(Br)c2)S(C)(=O)=O)c1,inactive: 24.1%
3,COc1ccc([Si](C)(C)[C@@H]2[C@@H](CCO)O[C@]3(C(=O)N(Cc4cccc(N5CCCCC5=O)c4)c4ccccc43)[C@H]2C)cc1,inconclusive: 84%
4,CC(C)OC(=O)CSc1nc(-c2cccs2)cc(C(F)(F)F)c1C#N,inactive: 68.3%
5,C[C@@H]1CN([C@H](C)CO)C(=O)Cc2cc(NS(=O)(=O)c3cccs3)ccc2O[C@H]1CN(C)Cc1ccc(Oc2ccccc2)cc1,inconclusive: 82.7%
6,COc1ccc(NC(=O)CSc2nc3c(c(-c4cccs4)c2C#N)CN(C)CC3)cc1OC,inconclusive: 144%
7,Cn1nnc2cc(NC(=O)NCCO)ccc21,inactive: -18.7%
8,Cc1ccc(S(=O)(=O)N(C)C[C@@H]2Oc3ccc(NS(=O)(=O)c4ccccc4)cc3CC(=O)N([C@@H](C)CO)C[C@@H]2C)cc1,inconclusive: 98.4%
9,C[C@H](CO)N1C[C@H](C)[C@H](CN(C)C(=O)Nc2cccc3ccccc23)Oc2c(NC(=O)Nc3ccc4c(c3)OCO4)cccc2C1=O,inactive: 7.2%
10,Cc1ccc(S(=O)(=O)N(C)C[C@@H]2OCCCC[C@@H](C)Oc3ccc(NC(=O)CCCCCC(=O)Nc4ccccc4N)cc3C(=O)N([C@H](C)CO)C[C@@H]2C)cc1,inconclusive: 83%
11,CCOc1ccccc1NC(=O)CSc1nc2ccccc2c(=O)n1-c1cccc(C(F)(F)F)c1,inconclusive: 82.1%
12,C[C@H](CO)N1C[C@H](C)[C@H](CN(C)S(=O)(=O)c2ccc(Cl)cc2)Oc2c(NC(=O)Nc3ccc(F)cc3)cccc2C1=O,inconclusive: 83.7%
13,COc1ccc([N+](=O)[O-])cc1NC(=O)CN(C)S(=O)(=O)c1ccc(Cl)cc1,inconclusive: 195%
14,C[C@@H]1CN([C@H](C)CO)C(=O)Cc2cc(NC(=O)CCC(F)(F)F)ccc2O[C@@H]1CN(C)Cc1ccc(Oc2ccccc2)cc1,inconclusive: 77.9%
15,C[C@@H]1CN([C@H](C)CO)C(=O)c2cc(NS(=O)(=O)c3ccc(F)cc3)ccc2O[C@@H]1CN(C)C(=O)Nc1ccccc1,inconclusive: 121%
16,C[C@H]1CN([C@@H](C)CO)C(=O)Cc2cc(NC(=O)Cc3cn(C)c4ccccc34)ccc2O[C@@H]1CN(C)S(=O)(=O)c1ccc(F)cc1,active: 88.7%
17,COC(=O)C(CC#Cc1ccc2c(c1)[C@]1(C(=O)N2)[C@H](C(=O)NC[C@H](O)c2ccccc2)[C@H]2C(=O)O[C@H](c3ccccc3)[C@H](c3ccccc3)N2[C@@H]1c1ccccc1OCCO)C(=O)OC,active: 113%
18,C[C@H](CO)N1C[C@H](C)[C@@H](CN(C)Cc2ccc(C(=O)Nc3ccccc3N)cc2)Oc2c(NC(=O)Nc3ccccc3)cccc2C1=O,inactive: 46.2%
19,C[C@@H]1CCCCO[C@@H](CN(C)S(=O)(=O)c2ccccc2)[C@@H](C)CN([C@H](C)CO)C(=O)c2cc(NC(=O)Nc3ccc(C(F)(F)F)cc3)ccc2O1,active: 183%
20,C[C@@H]1CCCCO[C@H](CN(C)S(=O)(=O)c2ccc(Cl)cc2)[C@@H](C)CN([C@H](C)CO)C(=O)c2cc(NS(=O)(=O)c3ccc(F)cc3)ccc2O1,inconclusive: 79.1%
21,C[C@H]1CN([C@@H](C)CO)C(=O)c2cccc(NC(=O)Nc3ccc(F)cc3)c2O[C@H]1CN(C)C(=O)NC1CCCCC1,inconclusive: 96%
